The source of these data is the supplement of paper PMC3334620.

The full ranking holds about 33,000 sequences; the median of “E-score (-0.5 to 0.5)” is about -0.0014, and the highest 2% start at about 0.25. The list shows a part of the results.

This experiment has as its target T1, Cad1 (UniProt P24813).
T1 sequence: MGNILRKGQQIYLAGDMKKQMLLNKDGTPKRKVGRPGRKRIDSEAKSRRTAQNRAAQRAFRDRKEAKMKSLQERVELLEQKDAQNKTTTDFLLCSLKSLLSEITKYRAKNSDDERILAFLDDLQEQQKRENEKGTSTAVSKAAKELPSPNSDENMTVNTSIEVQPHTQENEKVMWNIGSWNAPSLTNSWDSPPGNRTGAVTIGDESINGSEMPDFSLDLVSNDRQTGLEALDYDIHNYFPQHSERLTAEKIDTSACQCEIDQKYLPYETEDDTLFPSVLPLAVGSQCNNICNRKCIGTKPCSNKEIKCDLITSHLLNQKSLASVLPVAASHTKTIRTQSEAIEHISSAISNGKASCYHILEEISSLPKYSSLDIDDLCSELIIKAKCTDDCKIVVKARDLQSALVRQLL
Nature of the experiment: PBM E-score (8-mer binding enrichment) (E-score (-0.5 to 0.5)); higher = stronger / more preferred TF binding. The note with it: protein concentration: 100 nM; construct: GST-full length. The method, boiled down:
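Each ungapped eight-base word and its reverse complement, pooled, received an E-score from the Universal PBM Analysis Suite. Underlying scans, normalised with masliner, recorded fluorescent anti-GST bound to GST-tagged yeast transcription factors. These were applied at about 100-200 nM to universal all-10-mer Agilent arrays double-stranded by primer extension.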
Take AGGTGGAT: the “PBM E-score” value is -0.0872.

With ACGATGAT, the “PBM E-score” value was -0.138.

Consider CTTTTCTA, for which the “PBM E-score” value was -0.221.

Consider CGATCCAG, for which the “PBM E-score” value is -0.0727.

On to GTTCGGCA, for which the “PBM E-score” value is 0.0445.

Regarding CTTCTAAA, the “PBM E-score” value is -0.0456.

For TAGACTGA, the “PBM E-score” value was -0.0281.

Consider ATGTGTGA, for which the “PBM E-score” value is -0.0819.

As for ATCTTTCC, the “PBM E-score” value worked out at 0.0734.

For the sequence GATACGTA, the “PBM E-score” value turned out to be 0.0757.

With CCATGCCA, the “PBM E-score” value is -0.0107.

With AGTGAAAG, the “PBM E-score” value came to 0.0653.

For the sequence CAAGGTCA, the “PBM E-score” value was -0.212.

ATTCTCGC: the “PBM E-score” value was -0.144.

Turning to AAGTAATC, the “PBM E-score” value is 0.179.

With GAACAGTC, the “PBM E-score” value is -0.0401.

On to ATCTTGGC, for which the “PBM E-score” value is -0.0337.

For AGAAAGAG, the “PBM E-score” value was -0.111.

For CAGGATAG, the “PBM E-score” value stood at 0.107.

For AGGTGCCC, the “PBM E-score” value is -0.214.

For CAAACTAG, the “PBM E-score” value was -0.224.

Consider ATGAACAT, for which the “PBM E-score” value amounted to 0.124.

With CCCGTTTC, the “PBM E-score” value was -0.03.

On to AGCGCCAG, for which the “PBM E-score” value stood at 0.00152.

For the sequence CTGAATGC, the “PBM E-score” value was -0.025.

For the sequence ATCCATTG, the “PBM E-score” value was determined as 0.0418.

As to GGCATGGA, the “PBM E-score” value is -0.0221.

AGCACCCT: the “PBM E-score” value is -0.21.

On to GTTATGTA, for which the “PBM E-score” value was 0.0817.

As to ACTCAGGC, the “PBM E-score” value is 0.0666.

CCTGTCAA: the “PBM E-score” value is -0.0529.

As for ATCCCGTG, the “PBM E-score” value is 0.243.

As for AGGAGCTG, the “PBM E-score” value was -0.159.

Turning to AAGGGCGA, the “PBM E-score” value was -0.206.

For the sequence TCCAGGGA, the “PBM E-score” value is -0.219.

Regarding CACACTCC, the “PBM E-score” value turned out to be 0.0254.

Turning to ACAGGGCG, the “PBM E-score” value came out at 0.0956.

For the sequence CGGGAGAC, the “PBM E-score” value was -0.106.

Turning to GCTCGGGA, the “PBM E-score” value was -0.13.

On to AACATATC, for which the “PBM E-score” value was determined as 0.0764.

On to GGATAGAA, for which the “PBM E-score” value was 0.0535.

In the case of GCTAGACA, the “PBM E-score” value amounted to 0.0865.

As for CCTGCGAG, the “PBM E-score” value was -0.103.

On to GCCCTGCA, for which the “PBM E-score” value was -0.0779.

Take CTCCTGAA: the “PBM E-score” value was -0.16.

On to AGACGTAA, for which the “PBM E-score” value was determined as 0.0228.

For the sequence AACCGAAG, the “PBM E-score” value was found to be 0.069.

In the case of AAGATACC, the “PBM E-score” value was found to be 0.188.

For the sequence CGGCTGTA, the “PBM E-score” value is -0.112.

Consider CCAGACAC, for which the “PBM E-score” value was -0.204.

On to CTCGGTCC, for which the “PBM E-score” value amounted to 0.0048.

Regarding CGCCCAAG, the “PBM E-score” value was -0.155.

Take TCGAATAA: the “PBM E-score” value stood at 0.0909.

For the sequence CGGTTACA, the “PBM E-score” value was found to be 0.177.

With CATTACCC, the “PBM E-score” value was -0.225.

On to CGTGATAG, for which the “PBM E-score” value was 0.03.

Consider CATCGCCC, for which the “PBM E-score” value was -0.238.

CTAAACTA: the “PBM E-score” value is -0.0586.

With ATTTTAAG, the “PBM E-score” value was determined as 0.0929.

Take ACAGGCTA: the “PBM E-score” value is -0.232.

TGATTAAA: the “PBM E-score” value worked out at 0.123.

For the sequence ACCGAGAT, the “PBM E-score” value was found to be 0.0127.

Regarding CACTCTCG, the “PBM E-score” value was found to be 0.0619.

For the sequence AAGGGCGT, the “PBM E-score” value was -0.0183.

Turning to AGGTAACG, the “PBM E-score” value is -0.0725.

Take CATTTTCG: the “PBM E-score” value came out at 0.0501.

For the sequence GTGTGGAA, the “PBM E-score” value was -0.03.

For CCATGGAA, the “PBM E-score” value is -0.0381.

Take CTCTGTTA: the “PBM E-score” value is -0.0607.

Take ATTGGAAC: the “PBM E-score” value was 0.0974.

In the case of AATGACCT, the “PBM E-score” value is -0.188.

For GCACTGTA, the “PBM E-score” value was found to be 0.0956.

CTACATCA: the “PBM E-score” value is -0.00088.

As to TAGTATCA, the “PBM E-score” value stood at 0.265.

Consider GAAAGGAA, for which the “PBM E-score” value stood at 0.0254.

In the case of AGGTGATG, the “PBM E-score” value was -0.0954.

As for ATAGACGG, the “PBM E-score” value amounted to 0.0351.

On to AGCGAGAG, for which the “PBM E-score” value was determined as 0.149.

Regarding CTGACCAG, the “PBM E-score” value is -0.00702.

For the sequence TAACTGTA, the “PBM E-score” value is -0.0191.

With AGTTACGC, the “PBM E-score” value is -0.0449.

On to GCCACGAC, for which the “PBM E-score” value was 0.101.

On to AGTAGAGG, for which the “PBM E-score” value is -0.313.

As for ACTTATTG, the “PBM E-score” value was 0.0709.

Regarding AAGGGTTC, the “PBM E-score” value is -0.113.

Take ATTATGTG: the “PBM E-score” value was determined as 0.25.
